PubChem BioAssay AID743121, NCATS – 2013
Screen: 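Knock-downs that sensitise breast cancer cells to camptothecin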 (primary screen). Cells: MDA-MB-231 cells, a human breast cancer line. Reagent: single siRNA against human genes, 20 nM siRNA (0.8 pmol per well). Time to read-out: 120 h (drug added 48 h after transfection, read 72 h later). Treatment: camptothecin 20 nM (about EC30) for 72 h; vehicle 0.1% DMSO in parallel plates. Detection: 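CellTiter-Glo ATP signal, scaled to control siRNA as percent viability; sensitisation given as log2 of untreated divided by camptothecin-treated viability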. Direction: log2 vehicle/camptothecin viability: higher = stronger sensitisation to camptothecin; viability with camptothecin and viability without drug: higher = more viable cells. Rule for the call: 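Active genes have an RSA gene-level p-value below 0.001, computed from the ratios of their separate siRNAs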.
The deposit covers about 26,000 reagents; shown is a random part of them. 167 of all reagents (0.63%) count as active. 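Calls are per gene from RSA p-values that are not deposited; an individual active-marked siRNA can sensitise only weakly.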 Reagents against one gene are numbered here.

Target gene | siRNA no. | log2 vehicle/camptothecin viability | viability with camptothecin (% of control) | viability without drug (% of control) | activity call
PRKCD (GeneID 5580) | 1 | -0.0714 | 59.2 | 56.3 | inactive
PRKCD (GeneID 5580) | 2 | 0.24 | 65.6 | 77.5 | inactive
PRKCD (GeneID 5580) | 3 | 0.262 | 60.6 | 72.7 | inactive
PRKCD (GeneID 5580) | 4 | -0.465 | 65.3 | 47.3 | inactive
GEMIN2 (GeneID 8487) | 1 | 0.0785 | 82.9 | 87.5 | inactive
GEMIN2 (GeneID 8487) | 2 | -0.54 | 81 | 55.7 | inactive
GEMIN2 (GeneID 8487) | 3 | -0.128 | 84.6 | 77.4 | inactive
GEMIN2 (GeneID 8487) | 4 | 0.28 | 68 | 82.5 | inactive
ENPP3 (GeneID 5169) | 1 | -0.264 | 107 | 89.3 | inactive
ENPP3 (GeneID 5169) | 2 | -0.368 | 79.2 | 61.3 | inactive
ENPP3 (GeneID 5169) | 3 | -0.526 | 100 | 69.6 | inactive
ENPP3 (GeneID 5169) | 4 | -0.123 | 21.9 | 20.1 | inactive
NR5A1 (GeneID 2516) | 1 | -0.0742 | 104 | 99.1 | inactive
NR5A1 (GeneID 2516) | 2 | -0.548 | 18.3 | 12.5 | inactive
NR5A1 (GeneID 2516) | 3 | -0.835 | 30.4 | 17 | inactive
NR5A1 (GeneID 2516) | 4 | -0.0683 | 95.8 | 91.4 | inactive
CRLF3 (GeneID 51379) | 1 | -0.143 | 106 | 95.6 | inactive
CRLF3 (GeneID 51379) | 2 | -0.364 | 46.6 | 36.2 | inactive
CRLF3 (GeneID 51379) | 3 | -0.347 | 107 | 83.9 | inactive
PPP1R16B (GeneID 26051) | 1 | 0.92 | 21.4 | 40.4 | active
PPP1R16B (GeneID 26051) | 2 | 0.452 | 45.2 | 61.9 | active
PPP1R16B (GeneID 26051) | 3 | -0.152 | 45.3 | 40.8 | active
PPP1R16B (GeneID 26051) | 4 | 0.664 | 24.9 | 39.5 | active
LYPD6B (GeneID 130576) | 1 | -0.389 | 67.6 | 51.6 | inactive
LYPD6B (GeneID 130576) | 2 | -0.357 | 71.8 | 56 | inactive
LYPD6B (GeneID 130576) | 3 | -0.599 | 67.1 | 44.3 | inactive
LYPD6B (GeneID 130576) | 4 | -0.19 | 76.1 | 66.7 | inactive
SLC67A1 (GeneID 5002) | 1 | -0.293 | 87.2 | 71.2 | inactive
SLC67A1 (GeneID 5002) | 2 | -0.0494 | 107 | 103 | inactive
SLC67A1 (GeneID 5002) | 3 | -0.449 | 89 | 65.2 | inactive
SLC67A1 (GeneID 5002) | 4 | 0.167 | 48.9 | 54.9 | inactive
LIG1 (GeneID 3978) | 1 | 0.204 | 102 | 117 | inactive
LIG1 (GeneID 3978) | 2 | -0.139 | 88.9 | 80.7 | inactive
LIG1 (GeneID 3978) | 3 | -0.294 | 118 | 96 | inactive
IL13RA2 (GeneID 3598) | 1 | -0.0406 | 114 | 110 | inactive
IL13RA2 (GeneID 3598) | 2 | -0.0212 | 73.1 | 72 | inactive
IL13RA2 (GeneID 3598) | 3 | 0.166 | 68.2 | 76.5 | inactive
NGFR (GeneID 4804) | 1 | 0.0583 | 89.6 | 93.3 | inactive
NGFR (GeneID 4804) | 2 | -0.0462 | 36 | 34.8 | inactive
NGFR (GeneID 4804) | 3 | -0.0277 | 103 | 101 | inactive
NGFR (GeneID 4804) | 4 | -0.489 | 68.3 | 48.7 | inactive
SCN3A (GeneID 6328) | 1 | 0.158 | 87.9 | 98.1 | inactive
SCN3A (GeneID 6328) | 2 | 0.513 | 59.2 | 84.5 | inactive
SCN3A (GeneID 6328) | 3 | -0.724 | 94.9 | 57.4 | inactive
SCN3A (GeneID 6328) | 4 | -0.0446 | 73.2 | 71 | inactive
DUS4L (GeneID 11062) | 1 | 0.578 | 47.1 | 70.2 | inactive
DUS4L (GeneID 11062) | 2 | -0.151 | 89.2 | 80.3 | inactive
DUS4L (GeneID 11062) | 3 | 0.165 | 84.4 | 94.6 | inactive
DUS4L (GeneID 11062) | 4 | -0.604 | 64.1 | 42.2 | inactive
RSU1 (GeneID 6251) | 1 | -0.195 | 105 | 91.7 | inactive
RSU1 (GeneID 6251) | 2 | -0.0959 | 118 | 111 | inactive
RSU1 (GeneID 6251) | 3 | 0.0259 | 76.5 | 77.9 | inactive
FBXO30 (GeneID 84085) | 1 | 0.0141 | 117 | 118 | inactive
FBXO30 (GeneID 84085) | 2 | 0.0163 | 98.9 | 100 | inactive
FBXO30 (GeneID 84085) | 3 | -0.0464 | 93.2 | 90.2 | inactive
TRMT9B (GeneID 57604) | 1 | 0.213 | 28.5 | 33 | inactive
TRMT9B (GeneID 57604) | 2 | -0.439 | 95.5 | 70.4 | inactive
TRMT9B (GeneID 57604) | 3 | -0.234 | 109 | 92.7 | inactive
TRMT9B (GeneID 57604) | 4 | -0.219 | 79.6 | 68.3 | inactive
FLRT1 (GeneID 23769) | 1 | -0.356 | 135 | 105 | inactive
FLRT1 (GeneID 23769) | 2 | -0.246 | 56.9 | 48 | inactive
FLRT1 (GeneID 23769) | 3 | -0.124 | 65.2 | 59.9 | inactive
GPR139 (GeneID 124274) | 1 | 0.0506 | 60.2 | 62.3 | inactive
GPR139 (GeneID 124274) | 2 | 0.0437 | 77.5 | 79.9 | inactive
GPR139 (GeneID 124274) | 3 | 0.138 | 96.3 | 106 | inactive
GPR139 (GeneID 124274) | 4 | 0.068 | 61.7 | 64.7 | inactive
ARHGDIA (GeneID 396) | 1 | -0.0478 | 42.9 | 41.5 | inactive
ARHGDIA (GeneID 396) | 2 | -0.358 | 103 | 80.2 | inactive
ARHGDIA (GeneID 396) | 3 | -0.36 | 110 | 85.3 | inactive
